Consider two substances from article PMC12042439.

Amino acid sequences for entries named in this document (tags omitted). Residues count along the entry.
UniProt O08859, residues 18-275: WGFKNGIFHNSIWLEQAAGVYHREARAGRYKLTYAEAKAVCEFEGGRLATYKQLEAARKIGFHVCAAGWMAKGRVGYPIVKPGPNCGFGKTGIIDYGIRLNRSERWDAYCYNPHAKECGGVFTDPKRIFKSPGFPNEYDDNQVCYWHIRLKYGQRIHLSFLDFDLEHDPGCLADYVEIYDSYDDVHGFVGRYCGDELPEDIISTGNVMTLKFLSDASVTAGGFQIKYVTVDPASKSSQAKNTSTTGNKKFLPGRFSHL

These are yes or no findings as the source states them, for the method shown. Binding seen in cells or lysates may run through a third protein. Some entries that bind do so weakly or less than the wild type.

The assay has as its target T1, Pou class 2 homeobox 3 (Pou2f3), endogenous in MODE-K cells (mouse (endogenous in MODE-K)) (UniProt P31362).
T1 sequence: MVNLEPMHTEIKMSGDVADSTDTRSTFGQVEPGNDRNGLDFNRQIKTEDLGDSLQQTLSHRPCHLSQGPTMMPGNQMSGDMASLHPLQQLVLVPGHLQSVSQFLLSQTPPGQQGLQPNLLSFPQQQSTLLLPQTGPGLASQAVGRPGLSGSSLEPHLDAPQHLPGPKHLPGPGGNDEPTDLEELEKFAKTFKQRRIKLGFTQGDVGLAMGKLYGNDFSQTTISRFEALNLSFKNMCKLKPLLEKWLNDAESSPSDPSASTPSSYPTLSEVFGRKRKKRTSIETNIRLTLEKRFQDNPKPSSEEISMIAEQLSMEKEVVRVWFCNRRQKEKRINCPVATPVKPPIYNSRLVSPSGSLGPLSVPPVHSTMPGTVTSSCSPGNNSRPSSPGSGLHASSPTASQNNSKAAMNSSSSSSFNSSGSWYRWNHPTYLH
The assay is described as follows: co-IP; MODE-K cells, empty vector transfected (NC) or TSG-6-overexpressed (OE); mouse IgG as negative control; which protein was precipitated is not told.

Regarding “Tumor necrosis factor α stimulated gene 6 (TSG-6), endogenous in MODE-K cells (from UniProt O08859 18-275)”, the binding entry is “binds”.

For “TSG-6 overexpressed in MODE-K cells (OE) (from UniProt O08859 18-275)”, the binding result is listed as “binds”.
